Source: PubChem BioAssay AID743402 (Broad Institute, 2014)
The campaign covered roughly 1,200 compounds. About 140 (12%) were called active.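 The calls were made as follows: active = fitted curve falls past -35% activity change at a dose under twice the top valid dose, in every replicate test; inconclusive = replicate tests disagree on the call; inactive = the rest, including activity in the opposite direction.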 The list lacks most of the strong results.

Experiment: restoration of mutant CFTR halide transport – FRT cells, YFP quenching, cherry-pick, dose response (AID 743402);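 also: compounds act as correctors raising surface CFTR-F508del before acute activation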
Details: FRT CFTR-F508del YFP iodide quenching, 24 h, channel opened with forskolin and a potentiator; at 26 µM (top of the series) unless noted

Activity change, negative = more quenching (active), inactive:
C[C@@H]1CN([C@@H](C)CO)C(=O)c2cc(NS(=O)(=O)c3ccc(Cl)cc3)ccc2O[C@@H]1CN(C)Cc1ccc(C(F)(F)F)cc1 5.3% [at 23.5 µM], COc1ccc(OCC(=O)NNC(=O)CCc2ccccc2)cc1 12.9%, CCOC(=O)c1sc(NC(=O)c2c(CC)noc2C)nc1C 17.9%, Cc1ccc(C)c(NC(=O)CSc2nc3c(c(=O)n2C)SC(C)C3)c1 (stereo not given) 7.96%, COc1cc(C(O)CO)ccc1OS(=O)(=O)O (stereo not given) 0%, CC1(C(=O)NCc2ccco2)Cc2c(-c3ccc4c(c3)OCO4)ccnc2O1 (stereo not given) 3.33%, Cc1ccc(/C=N/NC(=O)c2ccc3ccccc3c2)s1 0%, COc1ccccc1NC1=C(NC(C)=O)C(=O)c2ccccc2C1=O 6.67%, C[C@@H]1CN([C@H](C)CO)S(=O)(=O)c2ccc(-c3ccccc3)cc2O[C@H]1CN(C)Cc1ccccn1 8.74%, CC(=O)NC(c1ccc(Cl)cc1)c1ccc2cccnc2c1O (stereo not given) 0%, CCOc1ccc(C(=O)N[C@H](C(=O)Nc2cccc(S(=O)(=O)N3CCCCC3)c2)C(C)C)cc1 3.33%, CCOC(=O)[C@]12CCCC=C1N(Cc1cccc3ccccc13)C(=O)[C@H](CC(=O)NCc1cccc(C(F)(F)F)c1)C2 -7.14%, COc1ccccc1C(=O)Nc1onc(C)c1C#N 6.25%, COCC(=O)N1C[C@@H]2[C@H](c3ccccc31)[C@H](CO)N2Cc1ccc(OC)cc1 5.3%, Nc1c(C(=O)c2ccco2)oc2ccccc12 3.85%, CCCC(=O)NC(c1ccc(C(C)C)cc1)c1ccc2cccnc2c1O (stereo not given) 22.3%, CC(C)c1cccc(-c2csc(C(O)c3ccco3)n2)c1 (stereo not given) 0%, COc1ccc(S(=O)(=O)N2CC[C@@H]3[C@@H](CO)N(C)c4ccc(-c5ccc(F)cc5)cc4[C@@H]32)cc1 -13.4%, COc1ccc(S(=O)(=O)N2CC[C@@H]3[C@@H](CO)Nc4ccc(-c5ccc(C#N)cc5)cc4[C@@H]32)cc1 -3.12%, Cc1cccc(N(C)S(=O)(=O)c2ccc(-c3cc(C)no3)s2)c1 -7.96%, Cc1cc(C(=O)N/N=C/c2ccc3c(c2)OCO3)c2ccccc2n1 6.67%, CCOC(=O)N1CCN(C(=O)C2CCC(=O)N(CCCN3CCCC3=O)C2)CC1 (stereo not given) 11.9%, COc1ccc(C2=Nn3c(nnc3-c3ccccc3F)SC2)cc1OC1CCOC1 (stereo not given) -10%, CCOc1ccc(C(=O)COC(=O)Cc2n[nH]c(=O)c3ccccc23)cc1 0%, CN(c1ccc(O)cc1)c1nc(-c2cccs2)cs1 -12.9%, CCCC(=O)Nc1ccc2c(c1)nc(CN1CCN(C(=O)OCC)CC1)n2CC 10%, COc1cc(OC)cc(C(=O)OCC(=O)NC(c2ccccc2)c2ccccc2)c1 3.33%, COc1ccc(CNC(=O)c2c(C)oc3c2C(=O)c2ccccc2C3=O)cc1 -29%, COc1ccc(CN(C)C[C@H]2OCCCC[C@H](C)Oc3ccc(NC(=O)Nc4ccc(C(F)(F)F)cc4)cc3C(=O)N([C@H](C)CO)C[C@H]2C)cc1 3.57%, CN(C)CCCN1c2ccccc2Sc2ccccc21 10%, COc1ccc(CCNc2ncnc3c2oc2ccccc23)cc1OC -3.57%, Cn1cccc1/C=C1\SC(=Nc2ccc(O)cc2)NC1=O -15.6%, Cc1ccc(/C=N/NC(=O)C2COc3ccccc3O2)s1 (stereo not given) -12.5%, Cc1onc(-c2ccccc2Cl)c1C(=O)N1CCN(c2cccc(Cl)c2)CC1 10%, COc1ccccc1NS(=O)(=O)c1cc(-c2cnc(C3CC3)o2)ccc1C 11.5%, CC1(C(=O)NCc2cccs2)Cc2c(-c3ccc4c(c3)OCO4)ccnc2O1 (stereo not given) 0%, O=C1CC(c2ccccc2)CC2=C1C=Nc1ccccc1N2 (stereo not given) 18.8%, Cc1ccc(C(=O)N/N=C/c2cc(Br)ccc2O)cn1 16%, COc1ccc([C@@H]2[C@@H]3C(=O)N(C(C)(C)C)C(=O)[C@@H]3[C@]3(Cc4ccccc4)C(=O)N(c4ccc(C(F)(F)F)cc4)C(=O)N23)cc1 6.67%, NS(=O)(=O)c1ccc(NNC(=O)c2ccc(Br)o2)c([N+](=O)[O-])c1 -3.12%, Fc1ccc(/C=N/NC(=S)Nc2ccc(Cl)cc2Cl)cc1 16.2%, COc1ccc(C(=O)Nc2ccccc2C(=O)Nc2ccccc2)cc1 -7.42%, N#CC1=C(N)Oc2cc(N)ccc2C1c1cccc(F)c1 (stereo not given) 6.67%, COc1ccc2c(c1)C(O)C(CO)C(C(=O)O)C2 (stereo not given) 6.25%, CCCNC(=O)N1CC2(CN(CC3CCCCC3)C2)c2c(n(C)c3cc(OC)ccc23)[C@H]1CO 3.57%, COc1cccc(CNC(=O)CSc2nc3ccc(C)cc3[nH]2)c1 -3.33%, COC(=O)C1CC23C=CCN4CCC5(c6ccccc6NC15C2C)C43 (stereo not given) 10%, CCOC(=O)c1sc2nc(Cc3ccc(Cl)cc3)[nH]c(=S)c2c1C 15.6%, COc1ccc(C(=O)c2cc([N+](=O)[O-])ccc2N2CCN(C)CC2)cc1 9.79%, COc1ccc(NC(=O)c2nc(C)c(C3(C)CC(c4ccccc4)=NO3)s2)cc1 (stereo not given) 14.8%, COc1ccccc1Nc1c2c(nc3ccccc13)CCC2 35.6%, CC1CCN(C(=O)C2COc3ccccc3O2)CC1 (stereo not given) 3.33%, NCC(=O)NNC(=O)OCC1c2ccccc2-c2ccccc21 0%, Cc1ccc(C)c(CSc2nc3[nH]ncc3c(=O)[nH]2)c1 5.42%, Cc1c(CCC(=O)O)c(=O)oc2c(C)c(OCc3ccccc3Cl)ccc12 6.67%, O=C(c1cc(-c2ccncc2)nc2c(Cl)cccc12)N1CCN(c2ccccc2F)CC1 16.2%, C=CC[C@@H](CC(=O)N(CCO)Cc1ccccc1)C(=O)N[C@H](COC(=O)[C@H](CC=C)CC(=O)OC(C)(C)C)Cc1c[nH]c2ccccc12 16.2%, NC(=O)N=Nc1c2[nH]c3ccccc3nc-2c2ccccc12 -29.2%, Cc1cc(/C=N/n2c(COc3ccccc3C)nc3ccccc3c2=O)c(O)c([N+](=O)[O-])c1 0%, O=C(CN1C(=O)NC2(CCCCCCC2)C1=O)Nc1ccc(Br)cc1 6.67%, CCCNC(=O)N1[C@H](C#N)[C@H](c2ccc(C#Cc3ccc(F)cc3)cc2)[C@@H]1CO 8.74%, CCOC(=O)c1c(NC(=O)C2c3ccccc3Oc3ccccc32)sc(C(C)=O)c1C -10.7%, CCN(C(=O)CSc1nc2ccccc2c(=O)n1-c1ccccc1F)C1CCS(=O)(=O)C1 (stereo not given) -6.67%, CCN(C(=O)CSc1nnc(C)n1-c1ccc(C)cc1)c1c(N)n(Cc2ccccc2)c(=O)[nH]c1=O 6.46%, COc1ccc(NC(=O)c2ccc(NC(=O)c3nc4nccc(C)n4n3)cc2)cc1 0%, S=C(NCCc1ccccc1)Nc1nccs1 3.57%, COC(=O)CNc1cc(S(=O)(=O)N2CCCCC2)ccc1Oc1ccc(C(=O)OC)cc1 8.28%, CC1(c2ccc3ccccc3c2)CCC(=O)O1 (stereo not given) 13.3%, Cc1nc(/N=C(\N)NC(=O)NC2CCCCC2)nc2ccccc12 -21.3%, C[C@@H]1CN([C@H](C)CO)C(=O)c2cc(NC(=O)Cc3ccccc3)ccc2O[C@@H]1CN(C)S(C)(=O)=O 17% [at 23.5 µM], CCCCn1cnc2c(c(CC#N)nn2-c2ccccc2)c1=N 3.33%, N#Cc1c(-c2ccc(F)cc2)c(-c2ccc(F)cc2)nn(CCO)c1=O 20%, COC(=O)C[C@@H]1CC[C@@H]2[C@H](COc3ccc(NC(=O)c4ccc(C(F)(F)F)cc4)cc3C(=O)N2C)O1 3.57%, Cc1ccc(S(=O)(=O)N2CCOCC2)cc1NC(=O)CSc1nnc(COc2ccccc2F)n1N 20%, CC12CCC3c4ccc(O)cc4CCC3C1CCC2=O (stereo not given) -3.33%, COc1cc2c(C#CCCO)c(-c3ccsc3)oc(=O)c2cc1OC -16%, CCCCn1nc(NC(=O)CC)c2cc3cc(OC)ccc3nc21 10%, Cc1cc(Br)cc(/C=N/NC(=O)c2ccc3c(c2)OCO3)c1O 13.3%, CCN1CCN(c2cc(C)c3cc(NC(=O)c4ccc(OC)c(OC)c4)ccc3n2)CC1 15.6%, O=C(CCN1CCCCC1)N1CCc2c([nH]c3ccccc23)C1c1cccnc1 (stereo not given) 3.33%, COc1cccc(C#Cc2ccc3c(c2)O[C@@H](CN(C)C(=O)c2ccccn2)[C@H](C)CN([C@@H](C)CO)S3(=O)=O)c1 6.91%, CCc1cc(-c2nnn(CCC3COCCO3)c2CC)ccc1-c1cn(Cc2ccc3ccccc3c2)nn1 (stereo not given) 6.67%, Cc1nn(S(=O)(=O)c2ccc(Cl)cc2)c(C)c1Sc1ccc([N+](=O)[O-])cc1 3.33%, CCN1C(=O)c2cccc3c(S(=O)(=O)N(C(C)=O)c4ccc(OC(C)=O)cc4)ccc1c23 4.17%, CCOc1cc(N2CCOCC2)c(OCC)cc1NC(=O)CN1C(=O)NC2(CCCCC2)C1=O 7.14%
